Article PMC4813707
Like-named read-outs stand apart in the source and are kept apart here. No constants are given. Whether binding was seen depends on the method and setting. In cells and extracts the contact can be indirect. These calls come from enrichment with a bait or labelling near it, and not all partners need be listed. Values belong to the molecule of their own block, whether it stands above or below them.

By UniProt entry, the sequences of proteins in these tests, tags left out.
UniProt Q9R190: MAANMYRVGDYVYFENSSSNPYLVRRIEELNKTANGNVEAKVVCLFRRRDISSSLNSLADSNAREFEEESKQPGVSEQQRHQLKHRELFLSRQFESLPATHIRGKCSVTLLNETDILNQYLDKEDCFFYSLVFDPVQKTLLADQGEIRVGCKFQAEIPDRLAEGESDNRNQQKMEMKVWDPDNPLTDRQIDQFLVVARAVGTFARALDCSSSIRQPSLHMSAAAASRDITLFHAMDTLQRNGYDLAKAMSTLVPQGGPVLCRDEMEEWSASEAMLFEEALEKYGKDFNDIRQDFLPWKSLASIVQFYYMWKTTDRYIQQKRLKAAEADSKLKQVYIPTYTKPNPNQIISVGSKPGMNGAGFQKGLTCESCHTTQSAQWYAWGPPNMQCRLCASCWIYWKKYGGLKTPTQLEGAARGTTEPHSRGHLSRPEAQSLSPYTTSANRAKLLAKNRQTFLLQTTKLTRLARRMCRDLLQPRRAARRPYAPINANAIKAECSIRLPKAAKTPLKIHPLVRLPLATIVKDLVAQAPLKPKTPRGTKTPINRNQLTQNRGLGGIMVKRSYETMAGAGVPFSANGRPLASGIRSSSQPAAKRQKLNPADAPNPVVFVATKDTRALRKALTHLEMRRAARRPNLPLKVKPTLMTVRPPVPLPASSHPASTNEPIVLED
UniProt Q6PDQ2: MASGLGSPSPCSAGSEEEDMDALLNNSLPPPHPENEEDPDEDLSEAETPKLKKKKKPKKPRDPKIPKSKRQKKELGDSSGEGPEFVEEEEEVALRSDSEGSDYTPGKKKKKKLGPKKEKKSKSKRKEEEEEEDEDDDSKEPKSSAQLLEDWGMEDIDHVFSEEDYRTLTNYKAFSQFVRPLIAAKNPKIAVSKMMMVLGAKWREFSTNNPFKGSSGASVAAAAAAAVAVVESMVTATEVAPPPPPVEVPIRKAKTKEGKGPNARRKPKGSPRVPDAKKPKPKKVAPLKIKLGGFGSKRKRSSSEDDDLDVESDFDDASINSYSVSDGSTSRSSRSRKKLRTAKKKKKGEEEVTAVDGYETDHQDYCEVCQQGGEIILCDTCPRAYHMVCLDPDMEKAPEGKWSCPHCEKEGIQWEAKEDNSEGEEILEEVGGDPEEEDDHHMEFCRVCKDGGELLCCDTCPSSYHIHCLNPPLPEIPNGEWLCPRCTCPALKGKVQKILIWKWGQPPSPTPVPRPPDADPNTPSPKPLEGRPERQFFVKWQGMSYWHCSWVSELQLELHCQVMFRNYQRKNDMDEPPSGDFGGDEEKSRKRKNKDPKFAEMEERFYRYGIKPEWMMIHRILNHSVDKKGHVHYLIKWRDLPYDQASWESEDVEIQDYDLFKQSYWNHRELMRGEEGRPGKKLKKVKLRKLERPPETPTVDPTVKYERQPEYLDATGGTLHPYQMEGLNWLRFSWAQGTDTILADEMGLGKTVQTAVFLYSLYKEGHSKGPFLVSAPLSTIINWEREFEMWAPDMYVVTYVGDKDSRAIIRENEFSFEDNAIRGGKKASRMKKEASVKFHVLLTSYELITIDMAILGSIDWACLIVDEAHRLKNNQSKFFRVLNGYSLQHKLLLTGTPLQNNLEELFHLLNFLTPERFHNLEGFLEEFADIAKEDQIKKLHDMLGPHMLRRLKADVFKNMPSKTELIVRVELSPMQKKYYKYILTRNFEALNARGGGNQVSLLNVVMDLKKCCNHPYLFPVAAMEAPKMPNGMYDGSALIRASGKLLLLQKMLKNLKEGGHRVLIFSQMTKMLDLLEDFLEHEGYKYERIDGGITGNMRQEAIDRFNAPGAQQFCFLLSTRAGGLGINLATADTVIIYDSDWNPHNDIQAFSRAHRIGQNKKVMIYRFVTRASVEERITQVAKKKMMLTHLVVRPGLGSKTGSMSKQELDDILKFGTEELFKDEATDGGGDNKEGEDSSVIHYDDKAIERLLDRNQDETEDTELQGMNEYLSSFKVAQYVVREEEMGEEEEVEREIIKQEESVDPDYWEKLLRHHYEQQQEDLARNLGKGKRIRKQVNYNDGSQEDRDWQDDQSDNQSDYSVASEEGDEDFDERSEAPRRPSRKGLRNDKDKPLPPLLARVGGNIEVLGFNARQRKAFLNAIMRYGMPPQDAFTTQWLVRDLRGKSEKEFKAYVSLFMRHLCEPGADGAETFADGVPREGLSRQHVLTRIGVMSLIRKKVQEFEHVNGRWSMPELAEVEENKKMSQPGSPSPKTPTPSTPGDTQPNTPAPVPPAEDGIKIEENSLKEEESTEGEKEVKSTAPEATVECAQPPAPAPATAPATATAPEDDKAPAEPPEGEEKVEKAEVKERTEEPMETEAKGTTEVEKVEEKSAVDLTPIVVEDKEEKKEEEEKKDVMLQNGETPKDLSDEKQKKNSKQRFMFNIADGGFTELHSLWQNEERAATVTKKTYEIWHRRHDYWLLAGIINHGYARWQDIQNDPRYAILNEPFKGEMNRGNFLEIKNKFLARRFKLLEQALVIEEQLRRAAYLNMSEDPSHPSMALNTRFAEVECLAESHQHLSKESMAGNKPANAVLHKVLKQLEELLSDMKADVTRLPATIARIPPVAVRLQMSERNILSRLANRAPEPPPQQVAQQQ
UniProt Q8VHR5: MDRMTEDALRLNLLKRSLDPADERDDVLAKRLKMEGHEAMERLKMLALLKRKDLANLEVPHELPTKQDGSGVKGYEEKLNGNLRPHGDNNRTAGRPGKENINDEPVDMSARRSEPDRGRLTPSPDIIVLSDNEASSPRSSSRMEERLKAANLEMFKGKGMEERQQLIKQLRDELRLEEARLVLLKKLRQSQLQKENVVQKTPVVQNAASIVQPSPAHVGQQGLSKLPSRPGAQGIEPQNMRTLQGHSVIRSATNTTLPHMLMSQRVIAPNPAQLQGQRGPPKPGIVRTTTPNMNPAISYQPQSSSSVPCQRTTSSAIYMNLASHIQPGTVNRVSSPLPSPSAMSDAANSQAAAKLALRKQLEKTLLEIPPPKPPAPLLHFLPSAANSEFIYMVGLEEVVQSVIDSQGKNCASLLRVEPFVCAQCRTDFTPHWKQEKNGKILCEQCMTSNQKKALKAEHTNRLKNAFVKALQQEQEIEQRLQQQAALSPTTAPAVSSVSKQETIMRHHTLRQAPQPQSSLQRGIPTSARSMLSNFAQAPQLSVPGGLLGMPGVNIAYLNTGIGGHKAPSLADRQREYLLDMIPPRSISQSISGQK
UniProt Q8K4B0: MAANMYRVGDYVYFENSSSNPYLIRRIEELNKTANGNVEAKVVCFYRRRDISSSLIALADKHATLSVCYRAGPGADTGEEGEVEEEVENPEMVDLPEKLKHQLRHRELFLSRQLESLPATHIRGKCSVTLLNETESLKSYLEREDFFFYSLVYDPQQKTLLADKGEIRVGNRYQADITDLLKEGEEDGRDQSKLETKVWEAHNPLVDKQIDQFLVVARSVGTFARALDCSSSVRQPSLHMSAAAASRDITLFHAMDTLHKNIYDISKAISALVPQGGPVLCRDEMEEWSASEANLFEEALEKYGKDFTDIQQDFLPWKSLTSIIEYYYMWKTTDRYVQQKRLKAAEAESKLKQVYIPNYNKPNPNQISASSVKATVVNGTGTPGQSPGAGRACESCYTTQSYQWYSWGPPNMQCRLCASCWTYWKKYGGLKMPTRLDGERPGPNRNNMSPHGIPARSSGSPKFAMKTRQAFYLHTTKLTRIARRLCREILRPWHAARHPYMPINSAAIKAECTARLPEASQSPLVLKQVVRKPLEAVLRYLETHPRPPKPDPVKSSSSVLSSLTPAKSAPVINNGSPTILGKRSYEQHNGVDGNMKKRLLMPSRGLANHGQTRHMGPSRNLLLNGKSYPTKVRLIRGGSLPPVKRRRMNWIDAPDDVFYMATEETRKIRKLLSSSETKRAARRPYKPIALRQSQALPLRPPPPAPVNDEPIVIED
UniProt Q924K8: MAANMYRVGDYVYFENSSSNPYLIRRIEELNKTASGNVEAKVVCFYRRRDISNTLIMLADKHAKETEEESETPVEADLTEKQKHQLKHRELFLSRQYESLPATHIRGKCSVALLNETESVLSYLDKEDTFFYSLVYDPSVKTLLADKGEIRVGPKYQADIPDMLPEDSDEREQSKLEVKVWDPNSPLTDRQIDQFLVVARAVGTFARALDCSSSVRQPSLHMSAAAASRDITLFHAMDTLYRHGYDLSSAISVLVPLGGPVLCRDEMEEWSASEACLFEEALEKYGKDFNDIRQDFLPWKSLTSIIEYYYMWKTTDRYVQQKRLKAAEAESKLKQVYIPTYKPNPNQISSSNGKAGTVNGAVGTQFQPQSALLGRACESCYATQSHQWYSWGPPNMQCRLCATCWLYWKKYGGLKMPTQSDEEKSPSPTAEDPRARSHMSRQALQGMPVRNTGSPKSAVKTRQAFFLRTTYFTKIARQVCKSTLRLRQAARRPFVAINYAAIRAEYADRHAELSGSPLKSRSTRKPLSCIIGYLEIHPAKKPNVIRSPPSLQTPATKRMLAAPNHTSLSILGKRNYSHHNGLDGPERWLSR
UniProt P70288: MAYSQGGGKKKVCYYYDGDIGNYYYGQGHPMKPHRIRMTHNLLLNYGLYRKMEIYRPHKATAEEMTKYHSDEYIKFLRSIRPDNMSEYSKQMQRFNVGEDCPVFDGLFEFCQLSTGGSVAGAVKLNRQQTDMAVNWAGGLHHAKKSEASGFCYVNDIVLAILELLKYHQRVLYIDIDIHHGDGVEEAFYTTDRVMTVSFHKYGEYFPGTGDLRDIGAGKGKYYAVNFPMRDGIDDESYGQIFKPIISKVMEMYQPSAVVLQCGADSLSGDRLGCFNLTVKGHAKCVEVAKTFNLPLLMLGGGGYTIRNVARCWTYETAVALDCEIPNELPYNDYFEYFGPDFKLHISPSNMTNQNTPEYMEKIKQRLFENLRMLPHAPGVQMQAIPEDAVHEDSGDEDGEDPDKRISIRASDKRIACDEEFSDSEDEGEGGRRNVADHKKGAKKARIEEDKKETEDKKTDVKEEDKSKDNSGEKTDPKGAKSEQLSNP

Experiments:
Mta2-FTAP (mouse) [1] = target: Mta2-FTAP (mouse) (UniProt Q9R190); test: affinity purification with mass spectrometry; anti-FLAG affinity purification of Mta2-FTAP from mouse ESC lysate (lysis at 450 mM NaCl, 0.2% Nonidet P-40, diluted to 150 mM NaCl, 0.1% Nonidet P-40), native elution with 3x FLAG peptide, BN-PAGE, 48 slices, LC-MS/MS and protein correlation profiling; replicates with and without benzonase
Mta2-FTAP (mouse) [2] = target: Mta2-FTAP (mouse) (UniProt Q9R190); test: as above; remark: listed apart in the source

Molecule: Chd4 (from UniProt Q6PDQ2 1-1915) (enzyme)
binding (Mta2-FTAP (mouse) [1]): binds

Molecule: Gatad2b (from UniProt Q8VHR5 1-594)
binding (Mta2-FTAP (mouse) [1]): binds

Molecule: Mta1 (from UniProt Q8K4B0 1-715)
binding (Mta2-FTAP (mouse) [1]): binds

Molecule: Mta3 (from UniProt Q924K8 1-591)
binding (Mta2-FTAP (mouse) [1]): binds

More lines, now with the values ahead:

binding (Mta2-FTAP (mouse) [1]): binds
Molecule: Hdac2 (from UniProt P70288 1-488) (enzyme)

binding (Mta2-FTAP (mouse) [2]): binds
B1: Cdk2ap1 (protein, UniProt O35207 1-114)
chain: MSYKPNLTAHMPAAALNAGSVHSPSTSMATSSQYRQLLSDYGPPSLGYTQGTGNSQVPQSKYAELLAIIEELGKEIRPTYAGSKSAMERLKRGIIHARSLVRECLAETERNARS
